Test results: publication PMC7820495

Protein sequences, listed by entry. Tags and fused reporters are not part of them. Lines headed by an entry give the natural chain unless they say otherwise; changes in a name come on top.
UniProt Q8IQC6: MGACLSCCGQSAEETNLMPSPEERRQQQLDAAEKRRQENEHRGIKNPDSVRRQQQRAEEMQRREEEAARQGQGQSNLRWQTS
UniProt Q7KN62: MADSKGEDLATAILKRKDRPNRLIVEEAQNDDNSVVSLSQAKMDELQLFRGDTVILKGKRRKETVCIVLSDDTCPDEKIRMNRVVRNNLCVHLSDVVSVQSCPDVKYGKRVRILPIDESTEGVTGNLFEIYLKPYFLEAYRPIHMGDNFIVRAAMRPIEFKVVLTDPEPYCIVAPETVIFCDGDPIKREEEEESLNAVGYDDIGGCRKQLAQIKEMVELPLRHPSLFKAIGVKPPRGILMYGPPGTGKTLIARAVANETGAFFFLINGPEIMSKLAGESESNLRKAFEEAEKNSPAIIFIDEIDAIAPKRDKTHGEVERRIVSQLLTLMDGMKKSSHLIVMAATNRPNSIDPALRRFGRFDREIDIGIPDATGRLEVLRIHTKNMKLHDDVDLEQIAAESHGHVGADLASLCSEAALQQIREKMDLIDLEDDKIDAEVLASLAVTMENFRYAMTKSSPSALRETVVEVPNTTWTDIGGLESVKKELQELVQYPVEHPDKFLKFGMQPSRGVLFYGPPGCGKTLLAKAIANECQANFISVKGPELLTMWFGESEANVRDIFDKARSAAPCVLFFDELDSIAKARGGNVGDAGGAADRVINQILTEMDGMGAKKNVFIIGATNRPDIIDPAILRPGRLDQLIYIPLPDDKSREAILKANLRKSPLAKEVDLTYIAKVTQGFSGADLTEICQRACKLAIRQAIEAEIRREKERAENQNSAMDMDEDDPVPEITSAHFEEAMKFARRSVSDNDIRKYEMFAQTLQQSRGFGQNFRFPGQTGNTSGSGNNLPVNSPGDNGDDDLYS

Molecular target: GST-SVIP (Drosophila SVIP, CG32039) (Drosophila) (UniProt Q8IQC6)
Assay: pull-down; recombinant GST-SVIP left on beads, incubated with VCP-sfGFP protein lysates from whole flies in NP40 buffer for 2 h, washed 3x, immunoblot with anti-VCP and anti-GFP; only the target purified

“VCP^WT-sfGFP (Drosophila VCP tagged with sfGFP at the endogenous locus) (from UniProt Q7KN62 1-801)” was tested, and the binding was “binds”.

These are yes or no findings as the source states them, for the method shown. In cells and extracts the contact can be indirect. Binding calls can cover weak binding; strength is not graded here.
